# Primary screen of a compound library

The chains behind the UniProt entries cited, without tags or fusion partners.
UniProt P9WFT3, whole entry: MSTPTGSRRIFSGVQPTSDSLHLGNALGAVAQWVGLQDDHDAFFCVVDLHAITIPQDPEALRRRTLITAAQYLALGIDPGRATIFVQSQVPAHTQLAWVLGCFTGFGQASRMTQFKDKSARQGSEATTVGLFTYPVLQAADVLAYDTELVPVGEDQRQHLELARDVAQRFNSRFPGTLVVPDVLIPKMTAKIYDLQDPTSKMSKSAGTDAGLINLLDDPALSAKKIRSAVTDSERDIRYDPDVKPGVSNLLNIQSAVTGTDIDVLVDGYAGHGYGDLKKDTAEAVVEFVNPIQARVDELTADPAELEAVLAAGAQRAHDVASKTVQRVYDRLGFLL

The filed quantity is “Percent Effect” (%).
The controls that fix the scale are not given in the record; negative values are as filed.
This is an unselected part of the compounds tested.
Two or more numbers in one place are separate tests of the same structure; such repeats can differ widely.

MtTrpRS: 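Enzyme assay of tryptophanyl-tRNA synthetase; the read-out is not stated. Target: Tryptophan-tRNA ligase, Mycobacterium tuberculosis (UniProt P9WFT3). Tested at 10 µM. Direction is not recorded; retested compounds ran higher, which suggests that high means inhibition. Size under these conditions: about 65,000 compounds, about 64 of them at 50% or above in at least one test.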
Leishmania in macrophages: 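Cell assay of Leishmania donovani living inside macrophages; the read-out is not stated. Concentration: 30 µM. The record gives no direction; compounds that gave an IC50 in retests scored well above the rest, so higher reads as stronger inhibition. Size under these conditions: about 69,000 compounds, about 1,000 of them at 50% or above in at least one test.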

structure: Cc1cccc(CN2CCN(C(=O)c3cc(Cl)c[nH]c3=O)CC2)c1
MtTrpRS: -4.326%
Leishmania in macrophages: 21.51%

structure: O=C(O)c1ccnc(SCC(=O)c2ccccc2)c1
MtTrpRS: -19.82%
Leishmania in macrophages: 6.56%

structure: Cc1cn(-c2ccccc2)nc1NS(=O)(=O)c1cc(C(=O)O)cs1
MtTrpRS: 1.782%
Leishmania in macrophages: -12.53%

structure: CC(OCC1CC1)C(=O)N1CCCN(c2nc3ccccc3[nH]2)CC1 (configuration not stated)
MtTrpRS: -6.242%
Leishmania in macrophages: 9.201%

structure: CCN1CCCN(S(=O)(=O)c2cc3ccccc3o2)CC1
MtTrpRS: -3.505%
Leishmania in macrophages: 14.67%

structure: CCCS(=O)(=O)N1CCN(C(=O)CO)CC1
MtTrpRS: 0.6552%
Leishmania in macrophages: 16.92%

structure: COCCOc1ccc(-c2noc([C@@H]3CCCN3C3CCC3)n2)cn1
MtTrpRS: -3.87%
Leishmania in macrophages: 0.203%

structure: COCCN1CCc2ccc(=O)n(Cc3csc(C)n3)c2CC1.O=C(O)C(F)(F)F.O=C(O)C(F)(F)F
Leishmania in macrophages: 8.821%

structure: COc1ncccc1CNC(=O)NCCNC(=O)c1ccco1
MtTrpRS: -3.632%
Leishmania in macrophages: 13.75%

structure: CCc1noc(C(C)N2CCN(CCOCC(F)(F)F)CC2)n1 (configuration not stated)
MtTrpRS: 1.355%
Leishmania in macrophages: 9.501%

structure: O=C1N(Cc2cccc(F)c2)CCC12CCN(c1ccccn1)CC2
MtTrpRS: -4.07%

structure: COCCC1(CNC(=O)NCC2CN(C)CCN2C)CCC1 (configuration not stated)
MtTrpRS: -4.413%
Leishmania in macrophages: 8.791%

structure: CC(C)n1ncc2cc(NC(=O)N3CCSCC3)cnc21
MtTrpRS: -6.671%
Leishmania in macrophages: 21.05%

structure: Cc1cc(C(=O)NCc2ccc(N3CCCC(C(N)=O)C3)cc2)on1 (configuration not stated)
MtTrpRS: 0.000006%
Leishmania in macrophages: 20.71%

structure: OC(CNCCn1cccn1)c1cccc(Br)c1 (configuration not stated)
MtTrpRS: -5.661%
Leishmania in macrophages: 1.273%

structure: O=C(NCc1ccco1)[C@@]12CCO[C@@H]1CCN(c1ncccn1)C2
MtTrpRS: -1.953%

structure: CC(C)N1CC(NC(=O)c2ccc(Cl)s2)CC1=O (configuration not stated)
MtTrpRS: -5.502%
Leishmania in macrophages: 10.92%

structure: Cc1nn(C)cc1C(=O)NCc1csc(C2CC2)n1
MtTrpRS: 6.392%
Leishmania in macrophages: -25.43%

structure: CC(=O)N1CC(c2n[nH]c3ncccc23)C1
MtTrpRS: 8.828%
Leishmania in macrophages: 13.55%

structure: CS(=O)(=O)N1CCN(C(=O)Cn2ccc3c(Cl)cccc32)CC1
MtTrpRS: -1.587%
Leishmania in macrophages: -23.88%

structure: CCOC(=O)N1CCN(C(=O)CCn2cccc2)CC1
MtTrpRS: 0.3408%
Leishmania in macrophages: -13.11% and 4.999%

structure: Cc1noc(CCCC(=O)NCC(c2ccco2)N2CCCCC2)n1 (configuration not stated)
MtTrpRS: -3.942%
Leishmania in macrophages: -2.132%

structure: CCNC(=O)NC(=O)CNC(C)(C)c1ccc2c(c1)OCO2
MtTrpRS: -1.573%
Leishmania in macrophages: 27.71%

structure: COCCN1CCC2(CC1)CN(C(=O)Cc1cccnc1)CCO2
MtTrpRS: -1.308%

structure: O=C(O)C(F)(F)F.O=C(O)C(F)(F)F.O=c1ccc2c(n1Cc1cccnc1)CCN(CC1CCOC1)CC2 (configuration not stated)
Leishmania in macrophages: 8.865%

Repeated from the top, 2 entries:

{"structure": "Cc1cccc(CN2CCN(C(=O)c3cc(Cl)c[nH]c3=O)CC2)c1", "MtTrpRS": -4.326, "Leishmania in macrophages": 21.51}
{"structure": "O=C(O)c1ccnc(SCC(=O)c2ccccc2)c1", "MtTrpRS": -19.82, "Leishmania in macrophages": 6.56}

Source: ChEMBL document CHEMBL3988442, “University of Dundee, Small-Polar-MMV Screening Library” (2021).